System: atherosclerosis in Apoe-/- mice
Assay: Atherosclerosis in Apoe-/- mice fed WD
Type: in vivo, mouse
Conditions: last 4 weeks of 12 weeks WD
Experimental: FIGS. 6A-6J depict that IRE1 kinase inhibition alleviates atherosclerosis. (Data are mean±SEM; Mann Whitney U test. * P≤0.05, ** P≤0.01, *** P≤0.001.) • 6A. Atherosclerosis experiment design in Apoe^−/− mice were fed with WD (12 weeks) and injected with vehicle (DMSO) or AMG-18 (30 mg/kg) once a day in the last 4 weeks of WD. • 6B. Lesion area calculated from en face aorta, stained with ORO (n=5; Scale bar=5 mm). • 6C. Total plaque area was calculated from H&E-stained aortic root sections (n=5; Scale bar=300 μm). • 6D. Foam cell area was calculated from ORO-stained aortic root sections (n=5; Scale bar=300 μm). • 6E. Necrotic area was calculated from H&E-stained aortic root sections (n=5; Scale bar=100 μm). • 6F. Atherosclerosis experiment design in Apoe^−/− mice were fed with WD (12 weeks) and injected with vehicle (DMSO) or AMG-18 (30 mg/kg) twice a day in the last 4 weeks of WD. • 6G. Lesion area calculated from en face aorta, stained with ORO (n=6; Scale bar=5 mm). • 6H. Total plaque area was calculated from H&E-stained aortic root sections (n=5; Scale bar=300 μm). • 6I. Foam cell area was calculated from ORO-stained aortic root sections (n=5; Scale bar=300 μm). • 6J. Necrotic area was calculated from H&E-stained aortic root sections (n=5; Scale bar=100 μm).
FIGS. 6K-6T depict: (Data are mean±SEM; Mann Whitney U test. * P≤0.05, ** P≤0.01, *** P≤0.001.) • 6K. The ratio of mouse weight at the beginning of the experiment over the weight at the end of the experiment in FIG. 6A (n=5). • 6L-6N. Plasma measurements for (6L) glucose (n=5) and (6M) cholesterol (n=5) from mice in FIG. 6A. (6N) Abundance of B cells, T cells and monocytes in the peripheral blood as % of total CD45+ cells from the vehicle (DMSO) or AMG-18 (30 mg/kg) once a day injected mice in FIG. 6A (n=5). • 6O. Protein lysates of liver from mice in FIG. 6A. Proteins were analyzed by western blotting using specific antibodies for pIRE1 and β-Actin (n=5). • 6P. The ratio of mouse weight at the beginning of the experiment over the weight at the end of the experiment in FIG. 6F (n=6). • 6Q-6R. Plasma measurements for (6Q) glucose (n=6) and (6R) cholesterol (n=6) from FIG. 6F. • 6S-6T. Protein lysates of (6S) thioglycolate-elicited PM and (6T) liver from mice in FIG. 6F. Proteins were analyzed by western blotting using specific antibodies for pIRE1 and β-Actin (n=6).
Mice studies and treatments: C57BL/6 (WT, Fmr1^+/+), Fmr1^−/− and Apolipoprotein E-deficient (Apoe^−/−) mice were purchased from Jackson Laboratory. IRE1 conditional knock out (Ire1α^flox/flox) mice were a kind gift from Dr. Takao Iwawaki (Kanazawa Medical University, Japan) and characterized before (Iwawaki et al, 2009). […] Fmr1 conditional knock out (Fmr1^flox/flox) mice were a kind gift from dr. David Nelson. […]

Cc1ccc2c(NS(=O)(=O)c3ccccc3Cl)cccc2c1Oc1ncccc1-c1ccnc(N[C@H]2CCCNC2)n1 [AMG-18]
TPC (total plasma cholesterol) (30 mg/kg once daily): no significant differences | plasma glucose (30 mg/kg once daily): no significant differences | TPC (total plasma cholesterol) (30 mg/kg twice daily): decrease | plasma glucose levels (30 mg/kg twice daily): no significant differences

Reference: US20250134889A1, “TARGETING IRE1 KINASE AND FMRP FOR PROPHYLAXIS, MANAGEMENT AND TREATMENT OF ATHEROSCLEROSIS” (CEDARS-SINAI MEDICAL CENTER, priority 2022, published 2025)
